Values joined by “and” are separate entries in the source; they are usually repeats but may differ in a detail not shown here. Identical values can stand only once. Screen size: about 340,000 compounds; about 6,200 (1.8%) were called active. The shares of active, inactive and inconclusive entries below differ from those in the screen. Calls follow the shape of the dose curve; as a rule, active = well fitted activation curve with a large enough effect; inconclusive = small, poorly fitted or top-dose-only effect; inactive = no such curve, though single readings can be large or run the other way. Where the call is inconclusive, the potency comes from a doubtful curve fit.
Test: A quantitative high throughput screen for small molecules that induce DNA re-replication in SW480 colon adenocarcinoma cells. Also: nearly all actives have a fitted effect of over 55% in size. As to re-replication activation: % of control where 0% means no effect.
Details: Hoechst DNA content imaging, 48 h; re-replication activation: at 46.1 µM (top of the series)
Procedure, shortened: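 First, 250 cells per well were seeded. Next, compound or vehicle (23 nL) was pinned in, plates sat 48 hr at 37 C. Finally Hoechst was added for 40 min before fluorescence scanning.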
Potency is read from the fitted curve at half-maximal effect.

Compound | re-replication activation | Potency
O=C(NC1CCCC1)c1cc2nc(-c3ccco3)cc(C(F)(F)F)n2n1 | inactive: 25.9% | 
COc1ccc(S(=O)(=O)n2cccc2)cc1 |  | inconclusive: 29.1 µM [activator, single point]
Cc1cccc(C)c1-n1c(C)cc(/C=C2\C(=O)NN(c3ccccc3)C2=O)c1C |  | inconclusive: 18.4 µM [activator, single point]
Cc1nc2cc(Cl)c(Cl)cc2n1-c1ccccn1 | inactive: 0.493% | 
COc1cc(C)c(C(C)C)cc1S(=O)(=O)n1cnc(C)c1 |  | active: 5.17 µM
CCOC(=O)c1cnc(-n2nc(C)cc2C)nc1Nc1ccc(OC)cc1 |  | inconclusive: 20.6 µM [activator, single point]
CSCCC(C(=O)N1CC2(C)CC1CC(C)(C)C2)N1C(=O)c2ccccc2C1=O (stereo not drawn) |  | inconclusive: 29.1 µM [activator, single point]
COc1c[nH]n(C2CCCCC2)c(=O)c1=O |  | inconclusive: 18.4 µM [activator, single point]
CC(C)Cc1ccc(CN2CCCC(NC(=O)CCN3CCCCC3=O)C2)cc1 (stereo not drawn) |  | inconclusive: 20.6 µM [activator, single point]
Cc1noc(C)c1S(=O)(=O)N1CCCC(C(=O)NCc2ccccc2Cl)C1 (stereo not drawn) |  | inconclusive: 0.231 µM [activator, full curve, poor fit]
COc1ccccc1OCC(=O)Nc1cc(Cl)ccc1Oc1ccccc1 | inactive: -2.48% | 
Cc1cccc(NC(=S)N2CCC(c3nc4ccccc4o3)CC2)c1 | inactive: 1.35% | 
COC(=O)c1cc(Nc2cc(C)c3c(O)cccc3n2)cc(C(=O)OC)c1 |  | inconclusive: 29.1 µM [activator, single point]
COc1ccc(-c2nc3ccccc3c(=O)[nH]2)cc1 | inactive: 0.598% | 
CN1/C(=C/C(=O)c2ccc(Cl)cc2)Sc2cc3c(cc21)OCO3 |  | inconclusive: 4.11 µM [activator, full curve]
Cc1ccc(C)n1-c1ccc(C(=O)N2CCC(C(N)=O)CC2)cc1 |  | inconclusive: 20.6 µM [activator, single point]
Cc1nn(C)cc1S(=O)(=O)N1CCN(Cc2ccc(F)cc2Cl)CC1 | inactive: -1.79% | 
CC(NCC(O)COCCC12CC3CC(CC(C3)C1)C2)c1ccccc1 (stereo not drawn) |  | inconclusive: 20.6 µM [activator, single point]
O=c1[nH]c(C2CCCN(S(=O)(=O)c3ccccc3)C2)nc2c1nnn2Cc1ccccc1Br (stereo not drawn) |  | inconclusive: 4.61 µM [activator, full curve, poor fit]
COc1ccc(C(=O)NC(=S)N2CCCCC2c2cccnc2)cc1OC (stereo not drawn) |  | inconclusive: 29.1 µM [activator, single point]
COc1ccc(CCNC(=O)C(=O)NCc2ccccc2)cc1OC |  | active: 18.4 µM
COc1ccc(S(=O)(=O)Nc2cccc3c2O[C@H](CN(C)C(=O)Nc2ccc4c(c2)OCO4)[C@@H](C)CN([C@H](C)CO)C3=O)cc1 |  | inconclusive: 20.6 µM [activator, partial curve, poor fit]

Compound | re-replication activation | Potency
CCSc1nc(-c2ccccc2)cc(=O)[nH]1 | inactive: -5.17% | 
COC(=O)c1ccc(C(NC(=O)OCc2ccccc2)/C(F)=C/[C@@H](C)C(=O)O)cc1 (stereo partly drawn) |  | inconclusive: 1.03 µM [activator, full curve, poor fit]
CCN(CC)CCNC(=O)c1cc2c(=O)n(C)c3ccccc3c2s1 |  | inconclusive: 23.1 µM [activator, single point]
COCCN1C(=O)C(=O)/C(=C(/O)c2ccc(S(=O)(=O)N3CCOCC3)cc2)C1c1ccc(O)c(OC)c1 (stereo not drawn) |  | inconclusive: 0.146 µM [activator, full curve, poor fit]
CC(=O)C1=C(O)C(=O)N(c2ccc(Br)cn2)C1c1ccc(F)cc1 (stereo not drawn) |  | active: 7.31 µM
Cc1nc2ccccc2n1Cc1ccc(Cl)cc1 |  | inactive and inconclusive: 16.8 µM [activator, partial curve, poor fit]
O=c1[nH]c(C2CCN(S(=O)(=O)c3ccccc3C(F)(F)F)CC2)nc2c1nnn2Cc1cccc(F)c1 |  | inconclusive: 29.1 µM [activator, single point]
COc1ccc(CN=Cc2[nH]c3ccc(Br)c(Cl)c3c2O)cc1 |  | inconclusive: 23.1 µM [activator, single point]
Cc1ccc(-c2nn(CC(=O)NCc3cc(-c4nn(C)c(=O)c5ccccc45)ccc3C)c(=O)c3ccccc23)cc1 |  | active: 6.51 µM
O=C(NCCc1ccccc1)Nc1ccc2c(c1)OCO2 |  | inconclusive: 18.4 µM [activator, partial curve, poor fit]
CCN(CC)c1ccc(S(=O)(=O)N2CCOCC2)cc1NC(=O)CNCc1cccc(Cl)c1 | inactive: 7.86% | 
Nc1ccc(-n2c(N)c(C(=O)NCc3ccc4c(c3)OCO4)c3nc4ccccc4nc32)cc1 |  | active: 20.6 µM
COc1ccc(-n2ncc3c2CC(C)(C)CC3NC(=O)C2CCN(C(C)=O)CC2)cc1 (stereo not drawn) |  | inconclusive: 25.9 µM [activator, partial curve, poor fit]
Cc1cccc(N(Cc2cc(=O)[nH]c3ccccc23)C(=O)CCl)c1 |  | inconclusive: 6.51 µM [activator, single point]
O=C(c1ccccc1NS(=O)(=O)c1ccc2c(c1)OCCO2)N1CCOCC1 |  | active: 11.6 µM
Cn1c(=O)n(Cc2ccccc2F)c(=O)c2c1nc1n2CCN1Cc1ccco1 | inactive: -2.59% | 
CCCCC1(C)OC(=O)C(=Cc2c[nH]c3ccccc23)C(=O)O1 (stereo not drawn) |  | inconclusive: 0.146 µM [activator, full curve, poor fit]
S=C1SCCN1Cc1ccccc1 | inactive: -1.49% | 
Cc1ccc(CNC(=O)Cn2nnc(C(=O)Nc3cc(C)ccc3C)c2N)cc1 | inactive: -0.545% | 
OCCCNc1cc(-c2ccnc(Nc3cccc(Cl)c3)n2)ccn1 |  | inconclusive: 0.103 µM [activator, full curve, poor fit]
CC(=O)c1ccc(NC(=O)CN2C(=O)/C(=C/C(C)=C/c3ccccc3)SC2=S)cc1 |  | inconclusive: 13 µM [activator, partial curve]

Source: PubChem BioAssay AID624297 (National Center for Advancing Translational Sciences (NCATS), 2012)
